AC50 data for 35 molecules are collected here from PubChem BioAssay AID1487 (National Center for Advancing Translational Sciences (NCATS), 2009).

The nature of the test: qHTS Assay for Modulators of Lamin A Splicing. The following applies: HeLa LMNA splicing GFP/RFP minigene ratio, 48 h. The essentials:
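Read-out is the ratio of GFP to DsRed2 object intensity, acquired by 488 nm laser-scanning cytometry on HeLa lamin A-EGFP minigene reporter cells. Compound incubation 48 hrs at 37 °C in Opti-MEM with 2% FBS; DMSO 0.5% final.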

Setting [1] is: measured here: RFP viability control channel.
The mark [2] stands for this setting: measured here: GFP splicing reporter channel.

The list shows a part of the results. The main result of the screen is listed elsewhere. These columns were measured beside it and carry no call. The list favours compounds with an active or inconclusive main result. Potencies come from curve fits of mixed quality, noted in brackets.

In general, AC50 refers to the concentration at which the activity in the assay is half-maximal. Consider `CCOC(=O)c1c(-c2ccc(OC)cc2)csc1NC(=O)CSc1ncnc2sccc12`, for which, under setting [1], the AC50 was 25.1 µM [rising, partial curve]. As to `COCCCNC(=O)c1cc(-c2cccnc2)nc2ccc(S(=O)(=O)N3CCC(C)CC3)cc12`, under setting [1], the AC50 is 0.447 µM [falling, full curve]. Turning to `O=C(CN1CCN(c2ccc([N+](=O)[O-])cc2)CC1)Nc1nccs1`, the AC50 under setting [1] was 12.6 µM [rising, single point]. Same read-out and setting: under `CN(Cc1ccccc1)Cc1nc2scc(-c3ccccc3)c2c(=O)[nH]1` stands 35.5 µM [rising, single point]. Turning to `COc1ccccc1NC(=O)N1CCN(c2cc(-c3ccccc3)nc3ncnn23)CC1`, under setting [2], the AC50 was 15.8 µM [rising, partial curve]. Turning to `COc1ccc(/C=C/C(=O)c2ccc3c(c2)OCO3)c(OC)c1`, the AC50 was 35.5 µM [rising, single point] under setting [2] and 35.5 µM [rising, single point] under setting [1]. Take `CCn1cc(C2=NOC(C(=O)Nc3ccccc3C(=O)OC)C2)c(C)n1` (stereo not given): the AC50 is, setting by setting: under setting [2], 11.2 µM [rising, partial curve]; under setting [1], 12.6 µM [rising, single point]. For `O=[N+]([O-])c1cc(Br)c(OCc2nnc(-c3ccccc3)o2)c(Br)c1`, the AC50 under setting [1] was 2 µM [falling, partial curve].

For the molecule `c1ccc(C2Nc3ccccc3Oc3ccccc32)cc1` (stereo not given), the AC50 under setting [1] was 15.8 µM [rising, single point]. Consider `CCOC(=O)c1c(NC(=O)CSc2nnc(C)s2)sc2c1CCC(C)C2` (stereo not given), for which the AC50 under setting [2] was 22.4 µM [rising, single point] and the AC50 under setting [1] was 25.1 µM [rising, single point].

Regarding `COc1ccc(/C=C/C(=O)c2ccc3c4c(cccc24)CC3)cc1`, the AC50 under setting [2] is 35.5 µM [falling, single point]. Same read-out and setting: the result for `CC/C(=N/Nc1ccccc1C)c1cnnc(SC)n1` reads 35.5 µM [rising, single point].

Take `O=c1c(/C=N/N2CCOCC2)c(C(F)(F)F)[nH]n1-c1ccccc1`: the AC50 under setting [1] was 0.316 µM [falling, partial curve]. On to `Cc1onc(-c2c(F)cccc2Cl)c1C(=O)N1CCN(c2ncccn2)CC1`, for which, under setting [2], the half-maximal activity concentration (AC50) is 6.31 µM [rising, single point]. The same measure, in the same setting: the result for `CC(C)(C)NC(=O)CSc1nc(N)c(NC(=O)c2ccccc2F)c(=O)[nH]1` reads 0.0794 µM [rising, partial curve, poor fit]. Turning to `COc1ccc(NC(=S)N(CCc2c(C)[nH]c3ccc(C)cc23)Cc2ccco2)cc1`, the AC50 is, setting by setting: under setting [2], 7.08 µM [rising, partial curve]; under setting [1], 10 µM [rising, partial curve]. With `C=CCc1ccc(OCCOc2cccc3ccc(C)nc23)c(OC)c1`, under setting [2], the concentration at half-maximal activity (AC50) was 0.251 µM [falling, single point].

Regarding `COc1ccc2c(c1)oc(=O)c1ccccc12`, the concentration at half-maximal activity (AC50) is, setting by setting: under setting [2], 14.1 µM [falling, partial curve, poor fit]; under setting [1], 39.8 µM [falling, partial curve, poor fit]. In the case of `C(=N\Nc1nc(-c2ccccc2)cs1)/c1cccs1`, the half-maximal activity concentration (AC50) under setting [1] is 3.16 µM [rising, single point]. In the case of `CC(C)(C)NC(=O)c1cnn2c(C(F)F)cc(-c3ccccc3)nc12`, the AC50 is, setting by setting: under setting [2], 3.55 µM [rising, single point]; under setting [1], 2.82 µM [rising, single point]. Take `S=C(NCc1ccco1)N/N=C/c1ccc(Cl)cc1`: the concentration at half-maximal activity (AC50) by setting is: under setting [2], 11.2 µM [rising, single point]; under setting [1], 17.8 µM [rising, single point]. `N#Cc1ccccc1NC(=O)C(=O)NCC(c1ccc2c(c1)OCO2)N1CCN(c2ccccc2)CC1` (stereo not given): the AC50 reads like this: under setting [2], 0.891 µM [falling, full curve, poor fit]; under setting [1], 0.708 µM [falling, partial curve, poor fit]. For `Cc1cc(Cl)ccc1OC(C)C(=O)N1CCCN(C(=O)C(C)Oc2ccc(Cl)cc2C)CC1` (stereo not given), the AC50 under setting [2] was 8.91 µM [rising, partial curve] and the AC50 under setting [1] was 11.2 µM [rising, partial curve].

As to `O=C(Nc1ccc2nc(SCC(=O)N3CCCc4ccccc43)sc2c1)c1ccc(F)cc1`, the AC50 under setting [2] is 4.47 µM [falling, full curve] and the AC50 under setting [1] is 11.2 µM [falling, partial curve, poor fit]. In the case of `COC(=O)c1cc(NCc2ccccc2F)ccc1N1CCOCC1`, the AC50 under setting [2] was 12.6 µM [rising, single point].

Regarding `Cc1ccc(CNc2ncnc3c2cnn3-c2ccccc2)cc1`, under setting [1], the AC50 was 10 µM [falling, single point].

With `COc1ccc2nc(/C=N/NC(=O)[C@H](CCSC)NC(=O)OC(C)(C)C)ccc2c1`, under setting [1], the AC50 is 12.6 µM [rising, single point].

Regarding `O=C(c1nn2c(C(F)(F)F)cc(-c3ccc(F)cc3)nc2c1Cl)N1CCOCC1`, the concentration at half-maximal activity (AC50) under setting [2] is 20 µM [rising, single point]. For the molecule `CCCC1(C(=O)OCC)NC(c2ccc(N(C)C)cc2)C2C(=O)N(c3ccc(OCC)cc3)C(=O)C21` (stereo not given), the AC50 under setting [1] is 4.47 µM [rising, partial curve, poor fit]. Turning to `CCn1c2ccc(F)cc2c2nnc(SCCN3CCCCC3)nc21`, the concentration at half-maximal activity (AC50) under setting [2] is 15.8 µM [falling, single point] and the AC50 under setting [1] is 1.26 µM [falling, partial curve, poor fit]. Turning to `Cc1cc(-c2nnc3n2N=C(c2ccc(-c4ccccc4)cc2)CS3)n[nH]1`, the half-maximal activity concentration (AC50) runs as follows: under setting [2], 11.2 µM [rising, single point]; under setting [1], 12.6 µM [rising, single point].

For `Cc1cccc(Nc2nnc(SCC(=O)Nc3ccccc3[N+](=O)[O-])s2)c1`, the AC50 under setting [1] was 11.2 µM [rising, partial curve, poor fit]. Consider `C=CCCC(=O)Nc1nc(C)c(-c2csc(Nc3ccc(Cl)cc3)n2)s1`, for which the AC50 was 0.282 µM [falling, single point] under setting [2] and 0.0316 µM [falling, partial curve] under setting [1].

With `Cc1ccc(CNC(=O)CSc2c3c(nc4ccc(Cl)cc24)CCCC3)o1`, the AC50 is 15.8 µM [falling, single point] under setting [2] and 22.4 µM [falling, single point] under setting [1]. As for `CC(=O)Nc1ccc(S(=O)(=O)NCC(=O)OC(C)c2ccccc2Cl)cc1` (stereo not given), the AC50 by setting is: under setting [2], 11.2 µM [rising, single point]; under setting [1], 28.2 µM [rising, single point].
